Assay results: the supplement of paper PMC3334620
The full ranking holds about 33,000 sequences; the median of “E-score (-0.5 to 0.5)” is about -0.015, and the highest 2% start at about 0.3. This is one part of the list.

What follows are sequences tested against T1, Abf1 (UniProt P14164) (assay: PBM E-score (8-mer binding enrichment) (E-score (-0.5 to 0.5)); higher = stronger / more preferred TF binding). Settings: protein concentration: 200 nM; construct: GST-full length.
T1 sequence: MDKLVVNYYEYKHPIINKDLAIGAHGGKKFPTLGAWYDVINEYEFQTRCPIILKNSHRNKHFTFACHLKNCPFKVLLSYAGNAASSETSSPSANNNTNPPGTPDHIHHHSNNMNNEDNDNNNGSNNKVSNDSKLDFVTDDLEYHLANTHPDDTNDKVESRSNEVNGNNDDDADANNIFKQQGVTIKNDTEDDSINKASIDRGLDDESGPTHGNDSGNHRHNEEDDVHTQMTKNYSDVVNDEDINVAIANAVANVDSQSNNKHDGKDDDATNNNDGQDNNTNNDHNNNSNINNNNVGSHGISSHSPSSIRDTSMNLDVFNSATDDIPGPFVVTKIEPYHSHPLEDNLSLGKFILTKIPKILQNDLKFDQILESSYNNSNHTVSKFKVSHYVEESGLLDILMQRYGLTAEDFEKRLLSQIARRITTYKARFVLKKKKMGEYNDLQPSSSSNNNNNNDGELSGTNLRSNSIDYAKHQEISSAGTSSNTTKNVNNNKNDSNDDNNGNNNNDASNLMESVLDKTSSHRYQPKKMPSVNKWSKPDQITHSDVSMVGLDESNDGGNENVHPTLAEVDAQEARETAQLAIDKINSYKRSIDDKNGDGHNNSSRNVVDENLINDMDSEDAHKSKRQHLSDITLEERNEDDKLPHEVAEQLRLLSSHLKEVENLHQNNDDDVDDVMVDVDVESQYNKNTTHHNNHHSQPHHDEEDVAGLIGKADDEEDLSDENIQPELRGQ
Procedure: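 Universal 'all 10-mer' protein binding microarrays (Agilent AMADID 015681) probed with GST-tagged S. cerevisiae TFs (full-length or DBD) made by in vitro transcription/translation (PURExpress), about 100-200 nM. Bound TF was detected with fluorescent anti-GST. Each ungapped 8-mer (which stands for itself and its reverse complement) is scored by the PBM enrichment score (E-score), a modified Wilcoxon-Mann-Whitney statistic from -0.5 to +0.5, computed with the Universal PBM Analysis Suite. Scale: above 0.35 generally sequence-specific binding.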

Sequence | PBM E-score
ACCTCGAG | 0.0887
CACCGCGG | 0.043
ACCTCACA | -0.0895
CGTTGTCC | 0.0331
ACACACCC | -0.00584
TGGATAAA | 0.216
ACGTATCC | 0.0297
CCCTGGAA | -0.181
AGCACGGA | 0.157
TCACAAAA | -0.0313
CTTGTGTC | -0.0564
CCCGGGAC | -0.222
CTATGGCC | -0.139
TCCATAGA | -0.149
GTACACTA | 0.0726
CCTGCCGA | -0.188
ATGCCAAG | -0.0925
CCAACTCG | -0.0747
ACGGGTTA | 0.0231
CCCGAGGC | -0.0862
AGCTATCC | -0.246
TAGTGTGA | 0.137
AGTCGCGA | 0.208
AAGTTACA | -0.0815
CTACACGC | -0.0965

Sequence | PBM E-score
ACAAATGG | -0.0304
CTGTACTA | 0.105
AGAAGACC | 0.00869
CACATGGC | -0.18
GATTAAAA | 0.17
CCGCGTGC | -0.0127
CATACCAC | 0.0524
AGGTTCAT | -0.278
CGTAACTC | 0.105
ATCAATCC | 0.116
ACGAGGTA | 0.154
AAATATTA | 0.217
CCGTCGAA | 0.201
ATAGTCCA | 0.0269
AGCATCAG | -0.055
CCCCATAG | -0.13
GTGGACAC | -0.0874
CCGATTGC | 0.0434
CATATTTC | 0.11
CAACAATG | 0.103
CGTTCCCA | 0.0728
GCGCGAGC | -0.274
CCACCGAG | -0.127
CTTGAAAG | 0.0291
CTATAGGC | -0.102

Sequence | PBM E-score
AGCTCAAG | -0.275
ACTTGTAT | -0.121
GGGCAACC | -0.245
ACACTATG | -0.0995
CCGCAAAC | 0.134
TACCCAAA | -0.0749
GGGGTGAC | 0.134
CTGAGTTC | -0.0373
CTCACTCC | -0.0715
CTAAGTCC | -0.154
GCACGCGA | 0.0602
GAACCCGA | 0.0767
CAGAACGC | -0.0801
AAAAGAAA | 0.0689
GAATGAAC | -0.112
AGGTAACA | 0.127
GCAATCCC | -0.0733
AAGCAGCG | 0.0835
ACAGTCGA | -0.145
GCACTACC | 0.0942
CTGTTCTC | -0.138
CGCGAACC | -0.0738
ATTCCTGC | -0.0386
CGACAAAG | 0.0397
AAGTTTTC | 0.029

Sequence | PBM E-score
GCAAACAC | 0.00058
CAAATCTA | -0.00274
GAGTCTCC | -0.129
CCCTCGGC | -0.192
GTGTCTAA | 0.111
ACGACTTG | 0.219
AAAGTCCT | -0.161
ACGCAAAG | 0.0496
AACGTGGA | 0.0105
CGACGATA | 0.373
AAATGCAA | -0.0101
AGACGAAG | 0.135
GTCCTATA | -0.0768
CATGAAGA | 0.132
AAGGGAGT | -0.126
ATAAGACA | 0.126
TGGGAACA | 0.0263
CAACTTCA | -0.112
AAAGGGCA | 0.00013
AGTTCTGA | -0.0393
CGCGTATC | 0.0488
ATTCCGGG | -0.095
AGGTAATC | -0.0547
AGCCCACG | 0.0424
ACAACAGC | -0.0578

Some of the entries so far, in CSV form.
Sequence,PBM E-score
GAGTCTCC,-0.129
ACGACTTG,0.219
ACGCAAAG,0.0496
AACGTGGA,0.0105
CGACGATA,0.373
AGACGAAG,0.135
AGCCCACG,0.0424

Carrying on.

Sequence | PBM E-score
CTGCTTAC | -0.198
ACGAGTCG | 0.165
CGAAGGAG | 0.0413
CGTAACAA | 0.248
ATAAACTA | 0.162
TTGACCAA | -0.049
ACAACCTA | -0.0161
ACATGGCC | -0.0287
ACAACCGT | -0.0373
ACGTCCGC | 0.127
ACTCGAAA | 0.124
TACATCTA | -0.0572
GAGAGACC | -0.131
CGCTTTAA | 0.0203
AATGTCAC | 0.416
GTCTCTGA | 0.194
ACATAGCT | -0.211
ATTCTGTC | -0.116
CCCGGTCA | -0.0268
GCACATGA | -0.107
AGAAAACC | -0.127
GGAATACC | -0.0774
GCTATTAA | 0.034
GTTGTCAA | 0.0388
ATATTGAC | -0.122

Sequence | PBM E-score
AAGCCCCT | -0.196
ACCATTAG | -0.125
GTAATACA | 0.152
TCACTTAA | 0.219
ACTACGGC | 0.102
CGACGTTA | 0.238
ACTTGACA | -0.0769
CTCTTTAC | -0.0883
CAAGCGGC | 0.0225
GACGCGGC | 0.0089
ACCACCCA | 0.0341
ATGCTCCG | -0.094
AGACTTAC | -0.19
AATTTGGT | 0.0854
AAGAGTGC | -0.156
ACAAGTAT | 0.0682
TCCCGAAA | 0.0516
AGTGGTAT | 0.0315
AATCGCCA | 0.00273
TCAAGGAA | 0.0823
AATGTTTC | -0.17
ACACAACA | 0.0864
ACAGGTAA | -0.00331
AATGGATG | 0.0613
GTTCTGGA | -0.00129

Sequence | PBM E-score
ATCACCCG | 0.293
CGATTGGC | -0.0866
GATATAAC | 0.307
GTGGGGGA | -0.276
CTTCCCAA | -0.0429
ATTATTTG | 0.154
ACCTTTCG | 0.072
CTCCAGCC | -0.0707
CTCGTCCC | 0.194
TACGAGTA | 0.257
GAGGCTGA | -0.235
ATATCTCA | 0.173
GGCGAGTA | -0.121
GCCTAAGA | -0.0403
GAGTCCGA | -0.00238
GTGACTAA | 0.327
ACCCACGA | 0.287
ATCCTTAA | 0.0133
GGAGTCTA | -0.154
TCTCCTCA | -0.0245
AAGTAAGC | 0.046
CCGAGGTC | -0.0891
